In patent publication US20140037547A1 (UNIVERSITY OF VERMONT AND STATE AGRICULTURAL COLLEGE, published 2014) one finds binding data, which are given here for one molecule.

For the test, the target named is T1, wild-type PKG Iα (cGMP-dependent protein kinase type Iα, full length) (UniProt P00516).
T1 sequence (looked up): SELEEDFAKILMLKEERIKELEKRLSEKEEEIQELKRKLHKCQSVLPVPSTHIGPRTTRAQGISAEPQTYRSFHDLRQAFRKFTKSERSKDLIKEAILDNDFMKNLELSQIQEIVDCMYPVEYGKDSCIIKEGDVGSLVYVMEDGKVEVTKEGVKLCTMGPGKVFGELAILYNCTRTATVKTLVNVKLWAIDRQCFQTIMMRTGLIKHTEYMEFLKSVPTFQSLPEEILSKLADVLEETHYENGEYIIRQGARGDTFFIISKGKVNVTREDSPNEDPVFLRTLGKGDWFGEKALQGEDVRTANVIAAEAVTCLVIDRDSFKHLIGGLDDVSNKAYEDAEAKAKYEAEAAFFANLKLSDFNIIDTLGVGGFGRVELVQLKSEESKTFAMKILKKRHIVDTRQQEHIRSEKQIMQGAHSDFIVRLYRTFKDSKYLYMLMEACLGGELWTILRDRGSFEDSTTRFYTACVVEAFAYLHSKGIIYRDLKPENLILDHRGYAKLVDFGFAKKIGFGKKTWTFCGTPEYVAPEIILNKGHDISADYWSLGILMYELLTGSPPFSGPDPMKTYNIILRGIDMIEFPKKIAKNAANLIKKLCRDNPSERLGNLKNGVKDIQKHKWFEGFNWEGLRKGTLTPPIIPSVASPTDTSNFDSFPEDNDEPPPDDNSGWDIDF
The experiment in a line: surface plasmon resonance. (In general: In SPR one partner is held on a chip, and binding of the other changes the refractive index at the surface.)

These are yes or no findings as the source states them, for the method shown. Some binding calls cover weakened binding; strength is not graded here.

B1: SW:329-358 (peptide)
peptide: DVSNKAYEDAEAKAKYEAEAAFFANLKLSD
As for B1, the binding result is “binds”.
